What all share (test): DAPPL (digital affinity profiling via proximity ligation, sequencing)
Settings in all cases: 10 mM Tris-HCl pH 7.5, 50 mM NaCl, 1 mM DTT, 4% glycerol, room temperature, 30 min; GST-TFs on glutathione beads, 16-mer random dsDNA library, 0.1% …; high values mean tight binding; double strand, one strand shown; scale: fold enrichment (6-mer frequency, TF over GST control)

One assay concerns the target T1, ETS2 (UniProt P15036).
T1 sequence: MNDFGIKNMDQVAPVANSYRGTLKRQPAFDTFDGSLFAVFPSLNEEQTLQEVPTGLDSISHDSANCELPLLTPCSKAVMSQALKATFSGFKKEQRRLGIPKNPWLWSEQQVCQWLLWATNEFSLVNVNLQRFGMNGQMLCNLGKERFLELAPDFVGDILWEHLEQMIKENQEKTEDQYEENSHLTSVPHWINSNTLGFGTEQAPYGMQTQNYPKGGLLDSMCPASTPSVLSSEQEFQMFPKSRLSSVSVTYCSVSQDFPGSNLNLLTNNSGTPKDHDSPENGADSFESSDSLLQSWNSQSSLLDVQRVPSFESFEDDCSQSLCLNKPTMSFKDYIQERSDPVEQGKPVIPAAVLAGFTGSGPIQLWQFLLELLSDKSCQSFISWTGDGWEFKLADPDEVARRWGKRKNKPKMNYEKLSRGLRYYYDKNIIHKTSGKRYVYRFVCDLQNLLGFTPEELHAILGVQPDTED

The target of the next assay is T2, ETV3 (UniProt P41162-2).
T2 sequence: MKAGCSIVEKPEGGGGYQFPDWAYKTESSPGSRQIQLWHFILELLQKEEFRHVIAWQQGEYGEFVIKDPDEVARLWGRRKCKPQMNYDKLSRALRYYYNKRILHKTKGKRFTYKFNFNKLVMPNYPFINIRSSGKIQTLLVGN

In another assay the target is T3, ELK3 (UniProt P41970).
T3 sequence: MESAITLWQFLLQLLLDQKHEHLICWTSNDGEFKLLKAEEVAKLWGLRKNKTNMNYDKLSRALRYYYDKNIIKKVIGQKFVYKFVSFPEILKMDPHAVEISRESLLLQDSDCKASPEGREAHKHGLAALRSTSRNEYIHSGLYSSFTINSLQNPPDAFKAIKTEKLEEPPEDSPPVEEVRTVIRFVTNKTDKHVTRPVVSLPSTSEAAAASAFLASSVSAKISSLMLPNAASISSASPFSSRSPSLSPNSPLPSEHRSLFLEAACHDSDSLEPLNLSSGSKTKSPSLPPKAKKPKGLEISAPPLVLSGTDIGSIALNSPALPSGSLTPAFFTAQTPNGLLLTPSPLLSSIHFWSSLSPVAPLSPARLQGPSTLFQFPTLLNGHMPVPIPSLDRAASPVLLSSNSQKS

Only a part is listed here, and it is no random draw. At the low end of the ranking, values are background and their order means little.

As for TACGAA, the binding signal stood at 1.18 with ETS2 and 1.19 with ETV3.
In the assay with ETS2, CTTCGC displayed a binding signal of 1.42.
For ACTCTC, the binding signal with ETS2 worked out at 1.48; with ETV3 it was 1.5.
For the sequence CTTAGG, the values for the binding signal with ELK3, with ETS2 and in the assay with ETV3 were 1.05, 1.23 and 1.1, respectively.
Take TATCCG: the results for the binding signal with ETS2 and in the assay with ETV3 were 2.55 and 2.57, respectively.
GTTTCG came in with a binding signal in the assay with ETS2 of 1.15.
As for TTCTTT, the figures for the binding signal with ETS2 and with ETV3 were 1.32 and 1.2, respectively.
The like results for CCTATC were, in that order, 1.2 and 1.2.
GCACTT: the binding signal with ELK3 amounted to 1.99; with ETS2, 1.76; in the assay with ETV3 it was 1.94.
TACTAC had a binding signal with ETS2 of 1.34.
The same measure, in the same setting: under CCTCAT stands 1.29.
Turning to TAATAG, the binding signal in the assay with ETS2 came out at 1.2; with ETV3 it was 1.15.
As for AAGTAC, the binding signal with ETS2 was 1.59.
As for AATTCC, the binding signal with ETS2 was 1.86; with ETV3 it was 2.09.
As for AATGAG, the binding signal in the assay with ETS2 was 1.2.
Take CTTCAA: the binding signal in the assay with ELK3 is 1.13; with ETS2, 1.25; with ETV3 it was 1.29.
Consider CTCATG, for which the binding signal in the assay with ETS2 was 1.21.
Sequence ATGTCT yielded a binding signal with ETV3 of 1.26.
As for CTTCGG, the binding signal with ELK3 stood at 1.38; with ETS2, 1.48.
With TCACTT, the binding signal in the assay with ETV3 was 1.55.
Regarding CTCAAT, the values for the binding signal in the assay with ELK3 and in the assay with ETS2 were 1.34 and 1.21, respectively.
On to TATAAC, for which the binding signal with ELK3 is 1.18; with ETS2 it was 1.25.
The like results for CCGATG were, in that order, 0.959 and 0.963.
Consider TCTTAC, for which the binding signal with ETV3 turned out to be 1.27.
The same measure, in the same setting: as for AACATC, the figure is 1.5.
Regarding ACTGCG, the results for the binding signal with ELK3 and in the assay with ETS2 were 1.25 and 1.35, respectively.
With AACACA, the results for the binding signal with ELK3 and with ETS2 were 1.26 and 1.38, respectively.
Taken in the same sequence, the figures for CAATTG were 1.23 and 1.26.
Taken in the same sequence, the figures for TTACGA were 1.09 and 1.14.
The like results for TCTAGC were, in that order, 1.44 and 1.3.
As to ACCTCG, the binding signal worked out at 0.981 with ELK3 and 1.11 with ETS2.
Turning to GGAAGC, the binding signal was 1.77 in the assay with ELK3 and 1.6 with ETS2.
As for TACCAA, the figures for the binding signal with ELK3 and with ETS2 were 1.05 and 1.18, respectively.
The like results for GGTATT were, in that order, 1.15 and 1.2.
Consider ACGCTG, for which the results for the binding signal in the assay with ELK3, in the assay with ETS2 and in the assay with ETV3 were 0.961, 1.06 and 1.26, respectively.
As for CCCTAA, the binding signal with ELK3 turned out to be 1.28; in the assay with ETS2, 1.15; in the assay with ETV3, 1.2.
Taken in the same sequence, the figures for CGCCCG were 1.15, 1.09 and 1.3.
Take GGCTCC: the binding signal with ELK3 amounted to 1.27; with ETS2, 1.21.
Taken in the same sequence, the figures for TGTATC were 1.44 and 1.42.
ACGGCC: the figures for the binding signal with ELK3 and with ETS2 were 0.973 and 1.1, respectively.
The like results for AACTCG were, in that order, 1.24 and 1.31.
The like results for CTTTCC were, in that order, 2.1 and 2.1.
Taken in the same sequence, the figures for TGAAAC were 1.33 and 1.3.
As for ATGTTC, the binding signal in the assay with ELK3 worked out at 1.14; in the assay with ETS2, 1.25.
Taken in the same sequence, the figures for GCTTTA were 1.24 and 1.2.
Taken in the same sequence, the figures for ATACAA were 1.31 and 1.19.
As for ACTTAA, the binding signal with ELK3 is 1.24; with ETS2, 1.19.
Taken in the same sequence, the figures for TCCGAC were 1.56 and 1.48.
Take TAAAAT: the binding signal in the assay with ETV3 stood at 1.17.
The same measure, in the same setting: under ATCATG stands 1.19; under CGCTAG, 0.99; under TTTCAG, 1.27.
Same read-out and setting: as for TACCCA, the figure is 1.06.
CTAATA: the values for the binding signal with ELK3 and with ETS2 were 1.06 and 1.18, respectively.
On to CTCTAG, for which the binding signal with ELK3 came out at 1.26; with ETS2, 1.26; in the assay with ETV3, 1.4.
On to ATCTAG, for which, in the assay with ETV3, the binding signal was determined as 1.07.
With CTCCTA, the binding signal worked out at 1.24 with ELK3 and 1.32 with ETS2.
On to AATTGT, for which the binding signal in the assay with ELK3 was found to be 1.29.
TCTCTA came in with a binding signal with ELK3 of 1.22.
GTTCCG: the figures for the binding signal with ELK3 and in the assay with ETV3 were 1.71 and 2.17, respectively.
On to CCGATC, for which the binding signal with ELK3 is 1.17; with ETV3, 1.25.
Regarding ATCAGC, the binding signal came out at 1.03 with ELK3 and 0.962 with ETV3.

The record behind these values is publication PMC7862700.
